Our source for the binding values is article PMC11306101.

By UniProt entry, the sequences of proteins in these tests, tags left out. Where a name states a change or a piece, a line headed by the entry shows the natural chain unless it says otherwise. Chains listed by the source or under a name are the forms on record and can include a tag or linker.
UniProt Q92956: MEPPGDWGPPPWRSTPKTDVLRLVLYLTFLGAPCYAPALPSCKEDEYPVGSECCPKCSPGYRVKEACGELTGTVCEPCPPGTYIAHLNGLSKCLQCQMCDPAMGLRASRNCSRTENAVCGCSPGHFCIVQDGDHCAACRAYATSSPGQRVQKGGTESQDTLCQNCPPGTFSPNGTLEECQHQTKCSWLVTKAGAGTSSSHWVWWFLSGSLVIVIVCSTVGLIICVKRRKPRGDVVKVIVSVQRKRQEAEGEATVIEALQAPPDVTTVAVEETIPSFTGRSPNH
UniProt Q8IYR6: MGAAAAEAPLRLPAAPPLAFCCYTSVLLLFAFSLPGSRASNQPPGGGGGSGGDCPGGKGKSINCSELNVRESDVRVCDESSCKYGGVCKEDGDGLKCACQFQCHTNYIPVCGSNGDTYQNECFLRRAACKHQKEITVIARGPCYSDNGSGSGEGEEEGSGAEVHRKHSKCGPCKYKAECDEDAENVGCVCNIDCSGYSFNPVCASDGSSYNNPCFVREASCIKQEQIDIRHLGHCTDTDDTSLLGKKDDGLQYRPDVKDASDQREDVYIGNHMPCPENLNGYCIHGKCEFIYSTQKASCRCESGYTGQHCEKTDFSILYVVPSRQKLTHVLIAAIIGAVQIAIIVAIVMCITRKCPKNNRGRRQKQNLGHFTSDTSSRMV
TMEFF1 His104Tyr (gnomAD homozygous variant), untagged (Q8IYR6, form named): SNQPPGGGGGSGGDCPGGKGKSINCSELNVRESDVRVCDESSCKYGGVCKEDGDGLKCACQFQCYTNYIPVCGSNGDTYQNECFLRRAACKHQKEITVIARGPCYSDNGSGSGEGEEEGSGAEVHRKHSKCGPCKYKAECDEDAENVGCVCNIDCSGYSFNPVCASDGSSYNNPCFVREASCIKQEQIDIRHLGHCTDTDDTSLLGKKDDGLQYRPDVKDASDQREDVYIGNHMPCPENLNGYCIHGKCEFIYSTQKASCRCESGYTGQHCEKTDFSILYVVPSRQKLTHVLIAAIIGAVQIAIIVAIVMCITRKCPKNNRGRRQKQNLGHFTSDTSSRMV
TMEFF1 Ile344Val (gnomAD homozygous variant), untagged (Q8IYR6, form named): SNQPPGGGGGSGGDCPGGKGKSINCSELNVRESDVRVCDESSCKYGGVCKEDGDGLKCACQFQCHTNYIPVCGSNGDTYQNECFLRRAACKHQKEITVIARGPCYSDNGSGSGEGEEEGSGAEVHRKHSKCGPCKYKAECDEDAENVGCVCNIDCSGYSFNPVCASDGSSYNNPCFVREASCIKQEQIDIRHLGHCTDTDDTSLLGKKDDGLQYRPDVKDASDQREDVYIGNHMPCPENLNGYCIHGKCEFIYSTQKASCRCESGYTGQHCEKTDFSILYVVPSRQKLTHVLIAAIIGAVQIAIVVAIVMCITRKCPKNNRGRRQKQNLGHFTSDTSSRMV
TMEFF1 Gly281Val (gnomAD homozygous variant), untagged (Q8IYR6, form named): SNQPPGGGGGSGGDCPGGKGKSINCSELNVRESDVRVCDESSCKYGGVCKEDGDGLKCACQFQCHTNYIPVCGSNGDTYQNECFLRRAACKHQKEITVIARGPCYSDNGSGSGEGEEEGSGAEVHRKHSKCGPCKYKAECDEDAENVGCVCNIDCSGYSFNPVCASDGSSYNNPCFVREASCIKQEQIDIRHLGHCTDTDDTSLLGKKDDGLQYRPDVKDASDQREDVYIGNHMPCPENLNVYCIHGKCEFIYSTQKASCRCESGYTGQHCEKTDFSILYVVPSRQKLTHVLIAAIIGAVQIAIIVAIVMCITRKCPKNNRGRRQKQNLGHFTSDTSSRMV
TMEFF1 Ala297Val (gnomAD homozygous variant), untagged (Q8IYR6, form named): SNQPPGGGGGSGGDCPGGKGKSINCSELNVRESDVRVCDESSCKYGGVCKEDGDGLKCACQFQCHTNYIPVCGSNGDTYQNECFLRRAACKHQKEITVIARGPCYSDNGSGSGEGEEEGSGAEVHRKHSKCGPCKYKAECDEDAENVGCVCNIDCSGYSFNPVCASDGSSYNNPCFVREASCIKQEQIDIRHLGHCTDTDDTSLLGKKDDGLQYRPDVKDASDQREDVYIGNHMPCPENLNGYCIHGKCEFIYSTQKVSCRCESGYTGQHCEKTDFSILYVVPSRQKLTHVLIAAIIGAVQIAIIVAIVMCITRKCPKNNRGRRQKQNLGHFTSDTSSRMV
TMEFF1 Pro255Ser (gnomAD homozygous variant), untagged (Q8IYR6, form named): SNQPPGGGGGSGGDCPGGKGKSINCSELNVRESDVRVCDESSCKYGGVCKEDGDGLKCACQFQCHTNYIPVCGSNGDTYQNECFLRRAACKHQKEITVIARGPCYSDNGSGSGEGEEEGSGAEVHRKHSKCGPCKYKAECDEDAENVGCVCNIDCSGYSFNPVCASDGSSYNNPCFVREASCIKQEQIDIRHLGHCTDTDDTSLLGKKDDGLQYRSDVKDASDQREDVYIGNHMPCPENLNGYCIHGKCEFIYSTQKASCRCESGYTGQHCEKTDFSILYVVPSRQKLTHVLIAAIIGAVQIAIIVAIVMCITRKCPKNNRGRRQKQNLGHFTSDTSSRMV
TMEFF1 Ile284Phe (gnomAD homozygous variant), untagged (Q8IYR6, form named): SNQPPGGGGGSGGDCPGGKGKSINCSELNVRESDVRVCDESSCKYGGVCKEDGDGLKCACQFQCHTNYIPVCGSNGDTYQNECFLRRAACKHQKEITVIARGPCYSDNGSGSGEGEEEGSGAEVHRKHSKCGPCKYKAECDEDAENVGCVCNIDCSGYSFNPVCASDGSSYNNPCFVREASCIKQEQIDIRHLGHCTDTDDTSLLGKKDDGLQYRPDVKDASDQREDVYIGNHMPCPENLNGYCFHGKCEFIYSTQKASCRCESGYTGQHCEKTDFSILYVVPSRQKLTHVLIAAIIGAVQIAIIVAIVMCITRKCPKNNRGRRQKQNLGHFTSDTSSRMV
TMEFF1 p.Pro44Ala (P1's variant), untagged (Q8IYR6, form named): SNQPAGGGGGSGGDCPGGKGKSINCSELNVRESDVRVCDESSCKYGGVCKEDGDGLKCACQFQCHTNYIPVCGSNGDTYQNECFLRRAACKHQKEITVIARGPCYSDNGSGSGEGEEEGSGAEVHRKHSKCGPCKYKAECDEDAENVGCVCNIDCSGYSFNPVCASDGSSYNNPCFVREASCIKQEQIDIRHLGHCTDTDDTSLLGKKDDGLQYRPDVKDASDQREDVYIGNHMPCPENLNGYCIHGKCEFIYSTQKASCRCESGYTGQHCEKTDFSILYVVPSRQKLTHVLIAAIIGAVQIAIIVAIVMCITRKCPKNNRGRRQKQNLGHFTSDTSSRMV
TMEFF1 P2-M1, p.Lys354–Arg360del, untagged (Q8IYR6, form named): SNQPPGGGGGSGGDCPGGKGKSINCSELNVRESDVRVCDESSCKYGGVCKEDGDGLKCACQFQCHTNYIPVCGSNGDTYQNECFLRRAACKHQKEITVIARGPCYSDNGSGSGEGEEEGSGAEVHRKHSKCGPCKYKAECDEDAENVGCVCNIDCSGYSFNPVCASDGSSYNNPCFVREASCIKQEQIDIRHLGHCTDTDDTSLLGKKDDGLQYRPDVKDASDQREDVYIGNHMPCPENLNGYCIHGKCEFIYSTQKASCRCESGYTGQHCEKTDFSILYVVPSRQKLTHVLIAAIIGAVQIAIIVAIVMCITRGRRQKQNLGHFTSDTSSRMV
TMEFF1 Glu134Val (gnomAD homozygous variant), untagged (Q8IYR6, form named): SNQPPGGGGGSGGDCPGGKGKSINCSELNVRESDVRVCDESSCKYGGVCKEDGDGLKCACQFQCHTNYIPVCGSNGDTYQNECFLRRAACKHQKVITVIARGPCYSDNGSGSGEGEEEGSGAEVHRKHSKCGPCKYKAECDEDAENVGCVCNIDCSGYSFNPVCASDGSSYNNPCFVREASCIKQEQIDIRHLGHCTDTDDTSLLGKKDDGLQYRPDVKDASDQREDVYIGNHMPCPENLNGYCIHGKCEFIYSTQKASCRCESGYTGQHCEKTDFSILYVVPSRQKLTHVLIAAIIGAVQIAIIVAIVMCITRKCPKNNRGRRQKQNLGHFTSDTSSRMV

Experiment [1] addresses T1, N-terminal Flag-tagged WT full-length NECTIN-1 (human) (UniProt Q15223).
T1 sequence: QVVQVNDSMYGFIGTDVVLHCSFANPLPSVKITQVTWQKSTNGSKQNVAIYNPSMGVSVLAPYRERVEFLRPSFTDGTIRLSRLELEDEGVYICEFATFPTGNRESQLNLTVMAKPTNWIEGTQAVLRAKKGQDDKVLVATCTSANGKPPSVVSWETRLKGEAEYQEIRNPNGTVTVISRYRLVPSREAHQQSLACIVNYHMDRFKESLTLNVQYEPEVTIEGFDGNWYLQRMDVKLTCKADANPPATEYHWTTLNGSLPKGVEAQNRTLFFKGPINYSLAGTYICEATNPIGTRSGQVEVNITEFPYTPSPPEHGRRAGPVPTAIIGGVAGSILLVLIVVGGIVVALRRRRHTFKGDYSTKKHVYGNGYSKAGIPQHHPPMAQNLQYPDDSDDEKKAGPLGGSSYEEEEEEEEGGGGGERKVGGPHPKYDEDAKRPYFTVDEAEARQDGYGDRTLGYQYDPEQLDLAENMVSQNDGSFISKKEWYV
The experiment is described as follows: co-IP; HEK293T cotransfected with 2 µg of each plasmid, 36–48 h; IP buffer 1.0% Triton X-100, 10% glycerol, 100 mM Tris-HCl pH 7.4, 1 mM EDTA, 75 mM NaCl; IP overnight at 4 °C with anti-TMEFF1 antibody plus protein G magnetic beads, anti-Flag M2 agarose or anti-Myc agarose; immunoblot.

Experiment [2] concerns the target T2, N-terminal Flag-tagged NECTIN-1 extracellular domain (EX) (human) (UniProt Q15223).
T2 sequence: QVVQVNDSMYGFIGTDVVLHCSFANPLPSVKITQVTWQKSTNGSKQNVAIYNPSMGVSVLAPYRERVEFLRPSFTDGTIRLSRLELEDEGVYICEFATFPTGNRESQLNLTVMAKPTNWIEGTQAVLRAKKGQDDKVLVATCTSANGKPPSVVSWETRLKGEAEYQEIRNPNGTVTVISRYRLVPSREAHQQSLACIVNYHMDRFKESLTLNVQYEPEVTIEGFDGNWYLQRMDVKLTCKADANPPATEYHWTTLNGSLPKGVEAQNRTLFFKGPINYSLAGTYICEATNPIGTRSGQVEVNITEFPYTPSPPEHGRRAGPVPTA
Described as above.

Experiment [3] concerns the target T3, cell-endogenous NECTIN-1 of HEK293T cells (human (endogenous in HEK293T)) (UniProt Q15223).
T3 sequence: T1 sequence
The experiment is described as follows: co-IP; endogenous proteins of HEK293T cells, with or without HSV-1 infection (MOI 1); IP with anti-NECTIN-1 antibody or mouse IgG isotype control; immunoblot with anti-NECTIN-1 or anti-TMEFF1. For orientation: A western blot detects proteins with antibodies after separation by electrophoresis.

Experiment [4] has as its target T4, YFP-tagged NECTIN-1 (human) (UniProt Q15223).
T4 sequence: T1 sequence
Briefly: FRET or BRET; HeLa cells cotransfected with CFP-tagged TMEFF1 and YFP-tagged NECTIN-1 or HVEM; FRET imaging, bleed-through-corrected FRET quantified at the cell surface. On the technique in general: In BRET a luciferase serves as donor, and the signal depends on an acceptor being close.

Another experiment deals with YFP-tagged HVEM (UniProt Q92956). The description is as above.
Experiment [5] has as its target T5, N-terminal Flag–GFP-tagged full-length NECTIN-1 (human) (UniProt Q15223).
T5 sequence: T1 sequence
Briefly: co-IP; HEK293T cotransfected with 2 µg of each plasmid, 36–48 h; IP buffer 1.0% Triton X-100, 10% glycerol, 100 mM Tris-HCl pH 7.4, 1 mM EDTA, 75 mM NaCl; IP overnight at 4 °C with anti-TMEFF1 antibody plus protein G magnetic beads, anti-Flag M2 agarose or anti-Myc agarose; immunoblot.

Experiment [6] addresses T6, N-terminal Flag–GFP-tagged NECTIN-1 extracellular domain (EX) (human) (UniProt Q15223).
T6 sequence: T2 sequence
The experiment is described as above.

No constants are given. Whether binding was seen depends on the method and setting. Binding seen in cells or lysates may run through a third protein. Some entries that bind do so weakly or less than the wild type. For some assays here: Sequences can lack the tags named with a protein.

Turning to “TMEFF1 His104Tyr (gnomAD homozygous variant), untagged (from UniProt Q8IYR6 40-380)”, the binding result in experiment [1] is given as “binds”. Regarding “N-terminal Myc-tagged TMEFF1 extracellular domain (EX) (from UniProt Q8IYR6 40-330) (domain or fragment)”, the binding result in experiment [1] and in experiment [2] was “binds” throughout.

Regarding “cell-endogenous TMEFF1 of HEK293T cells (from UniProt Q8IYR6 40-380)”, the binding result in experiment [3] is on record as “binds”. As for “TMEFF1 Ile344Val (gnomAD homozygous variant), untagged (from UniProt Q8IYR6 40-380)”, in experiment [1], the binding result is recorded as “binds”.

For “C-terminal Myc-tagged TMEFF1 extracellular domain (EX) (from UniProt Q8IYR6 40-330) (domain or fragment)”, the binding result in experiment [1] is listed as “binds”.

On to “TMEFF1 Gly281Val (gnomAD homozygous variant), untagged (from UniProt Q8IYR6 40-380)”, for which the binding entry in experiment [1] was “binds”. Still for that read-out and setting: the result for “TMEFF1 Ala297Val (gnomAD homozygous variant), untagged (from UniProt Q8IYR6 40-380)” reads “binds”.

For the substance “CFP-tagged TMEFF1 (from UniProt Q8IYR6 40-380)”, the binding entry in experiment [4] is “binds”; with YFP-tagged HVEM, “no binding”. For the substance “TMEFF1 Pro255Ser (gnomAD homozygous variant), untagged (from UniProt Q8IYR6 40-380)”, the binding entry in experiment [1] was “binds”. The same measure, in the same setting: the result for “TMEFF1 (tomoregulin-1), wild type, untagged (from UniProt Q8IYR6 40-380)” reads “binds”; that for “TMEFF1 Ile284Phe (gnomAD homozygous variant), untagged (from UniProt Q8IYR6 40-380)”, “binds”. In the case of “N-terminal Myc-tagged WT full-length TMEFF1 (from UniProt Q8IYR6 40-380)”, the binding result in experiment [1], in experiment [5], in experiment [6] and in experiment [2] was “binds” in each case. Consider “TMEFF1 p.Pro44Ala (P1's variant), untagged (from UniProt Q8IYR6 40-380)”, for which the binding result in experiment [1] is reported as “binds”.

In the case of “TMEFF1 P2-M1, p.Lys354–Arg360del, untagged (from UniProt Q8IYR6 40-380)”, the binding entry in experiment [1] was “binds”.

Turning to “TMEFF1 Glu134Val (gnomAD homozygous variant), untagged (from UniProt Q8IYR6 40-380)”, in experiment [1], the binding entry was “binds”.
